The list shows a part of the results. The main result of the screen is listed elsewhere. These columns were measured beside it and carry no call. Most of these compounds were active or inconclusive in the main read-out, so they are no random draw. Words in brackets tell the shape of the fitted curve; partial curves, single points and poor fits give uncertain potencies.

Our source for the AC50 values is PubChem BioAssay AID493014 (National Center for Advancing Translational Sciences (NCATS), 2011).

A short description of this experiment: qHTS Assay to Find Inhibitors of Chronic Active B-Cell Receptor Signaling. Particulars: ABC-DLBCL IkBa-CBG/CBR reporter, luminescence ratio (green luciferase fused to IkBa over red control in TMD8 lymphoma cells), 4 h. The essentials: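 Concentration-response series (up to 46 uM) were applied to TMD8 dual-reporter cells for 4 h at 37C with doxycycline. Green/red ratio, after filter-overlap correction, defined %Activity; red signal alone was normalised to basal cells and zero luminescence.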

Setting [1] is: measured here: CBR red luminescence, cell number.
Where [2] appears, read: measured here: IkBa-CBG green luminescence.

Take `Cc1cccc(NC(=O)NNC(=O)c2nn(C)cc2Br)c1`: under setting [1], the AC50 was 23.1 µM [falling, partial curve, poor fit].

As to `CCOC(=O)C1CCN(c2nc3ccccc3nc2C(C#N)C(=O)NCCc2ccccc2)CC1` (stereo unspecified), the AC50 under setting [1] was 35.5 µM [falling, single point].

On to `O=C1C2ON(c3ccc(Cl)cc3)C(c3ccco3)C2C(=O)N1c1ccccc1` (stereo unspecified), for which the AC50 under setting [1] was 32.6 µM [falling, partial curve, poor fit].

As to `CC(C)NC(=O)Nc1cccc2c1O[C@H](CN(C)C(=O)NC1CCCCC1)[C@@H](C)CN([C@H](C)CO)C2=O`, the AC50 under setting [1] is 16.4 µM [rising, single point].

`CCCc1cc(=O)n2c(nc3ccccc32)[nH]1`: the half-maximal activity concentration (AC50) under setting [1] was 3.66 µM [falling, partial curve].

With `COc1ccc(OC)c(NC(=O)CSc2ccc(-c3ccco3)nn2)c1`, the AC50 under setting [1] was 0.631 µM [falling, partial curve, poor fit].

With `O=C(Nc1ncn[nH]1)c1cccc(F)c1`, the AC50 under setting [1] is 0.517 µM [rising, full curve, poor fit].

Turning to `CCn1c(SCC(=O)N2CCCCCC2)nc2ccccc2c1=O`, under setting [1], the AC50 is 35.5 µM [falling, single point].

`CC(/C=C1\N=C(SCc2ccccc2)SC1=O)=C\c1ccccc1`: the AC50 under setting [1] is 20.6 µM [rising, partial curve].

Turning to `CC(=O)N1CCN(c2ccccc2NC(=O)COc2ccc(Br)cc2)CC1`, the AC50 under setting [1] is 11.2 µM [falling, partial curve, poor fit].

With `O=C(Nc1nnc(C2CC2)s1)c1cncc(Br)c1`, the AC50 under setting [1] is 11.6 µM [falling, partial curve].

`CC(C)(C)c1ccc(Cn2nnc3c(=O)[nH]c(C4CCCN(C(=O)c5cccs5)C4)nc32)cc1` (stereo unspecified): the AC50 under setting [1] was 35.5 µM [falling, single point].

With `Cc1[nH]nc2c1C(C(C)c1ccccc1)C(C#N)=C(N)O2` (stereo unspecified), the half-maximal activity concentration (AC50) under setting [1] was 35.5 µM [falling, single point].

For `COc1ccc(C2/C=C\CN(S(=O)(=O)c3ccc(C)cc3)CC(=O)N2Cc2cccc(F)c2)cc1` (stereo unspecified), the concentration at half-maximal activity (AC50) under setting [1] was 4.61 µM [rising, full curve].

In the case of `COc1cc2c(cc1OC)C(=O)N1[C@H]3c4cc(Cl)ccc4OC[C@@H]3[C@H](c3ccccc3)[C@]1(C)C(=O)N2`, the half-maximal activity concentration (AC50) under setting [1] is 29.1 µM [falling, single point].

For `COc1ccc2c3c(cccc13)C(=O)N(O)C2=O`, the concentration at half-maximal activity (AC50) under setting [1] is 20.6 µM [falling, single point].

`COc1cc2c(cc1OC)CN(C(=O)Nc1ccccc1Cl)CC2`: the concentration at half-maximal activity (AC50) under setting [1] was 2.82 µM [falling, partial curve, poor fit].

For `NS(=O)(=O)c1ccc(NN=C2CCN(Cc3ccccc3)CC2)c([N+](=O)[O-])c1`, the AC50 under setting [1] is 20 µM [falling, partial curve, poor fit].

As for `CC(NC(=O)c1ccccc1NC(=O)CN1CCc2ccccc2C1)c1ccccc1` (stereo unspecified), under setting [1], the AC50 is 14.1 µM [falling, single point].

In the case of `COc1cccc(C(=O)NCCS(=O)(=O)NCCc2ccc(OC)c(OC)c2)c1`, under setting [1], the AC50 was 29.1 µM [falling, single point].

Regarding `O=C(CSc1nnc(-c2ccc(O)cc2)o1)c1ccc(Br)cc1`, the AC50 under setting [1] was 7.08 µM [falling, partial curve, poor fit].

With `CC1Cc2ccccc2N1c1ncnc2c1nnn2Cc1ccccc1` (stereo unspecified), the concentration at half-maximal activity (AC50) under setting [1] is 6.31 µM [falling, partial curve, poor fit].

As for `COCCSc1ccccc1C(=O)Nc1cc(C)ccn1`, the half-maximal activity concentration (AC50) under setting [1] was 9.2 µM [rising, partial curve, poor fit].

For the molecule `Cc1cc(NC(=O)CN2C(=O)NC(C)(c3ccccc3)C2=O)no1` (stereo unspecified), the concentration at half-maximal activity (AC50) under setting [1] is 6.51 µM [rising, single point].

On to `CN(CCCNC(=O)CSc1cc(=O)n(C)c2cc(Cl)ccc12)Cc1ccccc1`, for which the half-maximal activity concentration (AC50) under setting [1] was 35.5 µM [falling, single point].

`COc1cccc(/C=N/Nc2nc3ccccc3n3cnnc23)c1`: the half-maximal activity concentration (AC50) under setting [1] is 9.2 µM [falling, partial curve, poor fit].

For `Cn1nc(C(C)(C)C)c([N+](=O)[O-])c1C(N)=O`, the AC50 under setting [1] was 11.2 µM [rising, partial curve].

Take `CC(C)(Oc1ccc(Cl)cc1)C(=O)N1CCN(c2ccccn2)CC1`: the AC50 is, setting by setting: under setting [1], 29.1 µM [falling, single point]; under setting [2], 20.6 µM [rising, single point].

For the molecule `Cn1nc(C(C)(C)C)cc1NC(=O)Nc1ccc(F)cc1F`, the AC50 under setting [1] is 2 µM [falling, partial curve].

Regarding `FC(F)(F)c1cc(NCc2cccs2)n2ncnc2n1`, the concentration at half-maximal activity (AC50) reads like this: under setting [1], 25.9 µM [rising, single point]; under setting [2], 0.206 µM [rising, full curve, poor fit].

Take `CC1CN(Cc2csc(-c3ccc(Cl)cc3)n2)CC(C)O1` (stereo unspecified): under setting [1], the AC50 was 4.47 µM [rising, partial curve].

On to `O=C(CSc1cnc2ccccc2n1)NC1CCCC1`, for which the AC50 under setting [1] is 5.17 µM [falling, partial curve, poor fit].

Take `O=C(NCc1ccccc1Cl)C1CCC(CNc2c(N3CCOCC3)c(=O)c2=O)CC1` (stereo unspecified): under setting [1], the AC50 is 12.6 µM [rising, single point].

Regarding `Cc1cc(-c2ccccc2)nc2cc(C(=O)NCc3ccco3)nn12`, the AC50 under setting [1] is 35.5 µM [falling, single point].

Consider `COc1cc(CCC(=O)OCC(=O)Nc2nc(C)c(Cl)cc2Cl)cc(OC)c1OC`, for which the AC50 under setting [1] was 29.1 µM [rising, partial curve, poor fit].

Take `CCn1c(SCC(=O)NCc2ccc3c(c2)OCO3)nc2c(c1=O)SCC2`: the half-maximal activity concentration (AC50) under setting [1] was 12.6 µM [falling, single point].

`COC(=O)c1ccc(NC(=O)CC(=O)Nc2ccc(C(=O)OC)cc2)cc1`: the AC50 under setting [1] is 14.1 µM [rising, partial curve, poor fit].

For the molecule `CCOC(=O)c1c(N)sc(-c2ccccc2)c1C`, the concentration at half-maximal activity (AC50) is 8.2 µM [rising, partial curve] under setting [1] and 29.1 µM [falling, single point] under setting [2].

For the molecule `CCC(=O)NCCc1nc2cc(NC(=O)c3ccco3)ccc2n1C`, under setting [1], the AC50 is 4.47 µM [falling, full curve].

For the molecule `Brc1ccc(CN2CCN(Cc3c[nH]c4ccccc34)CC2)cc1`, the AC50 under setting [1] is 2.51 µM [rising, single point].

As to `O=[N+]([O-])c1ccc(/C=N/NC(=S)Nc2ccc(Cl)cc2Cl)s1`, the concentration at half-maximal activity (AC50) under setting [1] is 3.16 µM [rising, full curve, poor fit].

In the case of `COCCCNCCOCCOc1ccc(Cl)cc1C(C)(C)C`, the AC50 under setting [1] was 14.6 µM [falling, partial curve, poor fit].

For `COc1ccc(Cl)cc1C(=O)NNC(=S)NC1CCCC1`, the half-maximal activity concentration (AC50) under setting [2] is 12.6 µM [falling, partial curve, poor fit].

For the molecule `COC(=O)c1cc(NCc2c(F)cccc2Cl)ccc1N1CCOCC1`, under setting [1], the AC50 was 7.08 µM [falling, full curve].

With `O=C(C=C1CCN(c2ncc(C(F)(F)F)cc2Cl)CC1)NNC(=O)Nc1ccc(Cl)cc1`, the AC50 under setting [1] is 3.98 µM [rising, partial curve, poor fit].

For the molecule `COc1ccc(OC)c(-c2cn(S(=O)(=O)c3ccccc3)nc2N)c1`, under setting [1], the AC50 is 1.84 µM [falling, partial curve, poor fit].

For `CCC(C)(C(=O)NC1CCCC1)N(C(=O)c1cnccn1)c1c(C)n(C)n(-c2ccccc2)c1=O` (stereo unspecified), the AC50 under setting [1] was 6.51 µM [rising, single point].

In the case of `CC(=O)c1ccc(N2CCN(C(=O)C(=O)c3c(C)[nH]c4ccccc34)CC2)cc1`, the AC50 under setting [1] was 0.631 µM [rising, full curve, poor fit].

Regarding `CCOC(=O)c1cnn(-c2ccccc2)c1NC(=O)c1cccs1`, the AC50 under setting [1] was 8.91 µM [rising, partial curve].

As for `CC(C)C(=O)Nc1ccc(S(=O)(=O)Nc2nccc(/C=C/c3ccccc3)n2)cc1`, under setting [2], the concentration at half-maximal activity (AC50) was 18.4 µM [falling, single point].

As for `Cc1c2c(nc3c(C(=O)NC4CC4)cnn13)CCCC2`, the AC50 under setting [1] is 10 µM [rising, partial curve].

On to `CCCCNC1=CC(=O)C(=O)c2ccccc21`, for which the AC50 under setting [1] is 8.91 µM [falling, partial curve].

Turning to `CCN(CC(=O)NCc1ccc(F)cc1)Cc1nc2cc(Cl)ccc2c(=O)[nH]1`, under setting [1], the AC50 was 0.411 µM [falling, partial curve, poor fit].

Turning to `CCOC(=O)C1=C(CN2CCCCC2)NC(=O)NC1c1cc(C)ccc1C` (stereo unspecified), under setting [1], the half-maximal activity concentration (AC50) is 0.112 µM [falling, full curve, poor fit].

Regarding `Cn1cnnc1SCC(=O)c1ccc2c(c1)NC(=O)CO2`, the AC50 under setting [1] was 18.4 µM [rising, single point].

In the case of `O=C(Cn1cnc2scc(-c3ccc(Cl)cc3)c2c1=O)N1CCOCC1`, the AC50 under setting [1] was 5.01 µM [rising, partial curve, poor fit].

`CC(=O)NCCc1nc2cc(NC(=O)Nc3ccccc3)ccc2n1C`: under setting [1], the AC50 was 10 µM [falling, partial curve, poor fit].

As to `Nc1ccccc1NC1=CC(=O)CC(c2ccco2)C1` (stereo unspecified), under setting [1], the AC50 is 29.1 µM [falling, single point].

Take `CCOC(=O)CN(C)S(=O)(=O)c1ccc(-c2cc(C(=O)OC)sc2C(F)(F)F)cc1`: the AC50 under setting [1] is 3.55 µM [rising, partial curve, poor fit].

Turning to `COCc1nnc(NC(=O)CCCOc2ccccc2)s1`, the AC50 under setting [1] was 29.1 µM [rising, single point].

Turning to `O=C(c1ccccc1)N1CCN(c2ccc([N+](=O)[O-])cc2-n2cccc2)CC1`, the AC50 under setting [1] was 7.08 µM [rising, full curve, poor fit].

As to `COc1ccc2c(c1)[C@H]1[C@H](CO2)[C@H](c2ccccc2)[C@]2(C)C(=O)Nc3cc(Cl)ccc3C(=O)N12`, the AC50 under setting [1] was 4.61 µM [falling, full curve].

`Cc1ccc(C2=CC(c3ccccc3F)n3c(nc4ccccc43)N2)cc1C` (stereo unspecified): the AC50 under setting [1] was 3.55 µM [falling, partial curve].
